This is an account of results in article PMC5764453.

The experiment has as its target T1, prohibitin (PHB), murine (mouse (endogenous in NSC-34)) (UniProt P67778).
T1 sequence: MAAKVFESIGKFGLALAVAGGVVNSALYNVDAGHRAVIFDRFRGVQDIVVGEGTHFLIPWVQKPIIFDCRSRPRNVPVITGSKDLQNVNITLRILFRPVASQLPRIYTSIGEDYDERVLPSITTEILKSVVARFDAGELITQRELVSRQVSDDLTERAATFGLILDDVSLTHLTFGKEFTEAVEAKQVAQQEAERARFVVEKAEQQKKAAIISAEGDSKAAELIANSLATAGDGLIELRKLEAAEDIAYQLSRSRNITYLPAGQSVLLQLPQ
As to the kind of experiment: co-IP; lysate of EV71-infected NSC-34 cells (M.O.I. 10, 48 h.p.i.); anti-PHB antibody or IgG isotype on Dynabeads Protein G, 3 hours at 4°C; blot with anti-EV71 3D/3CD.

Results are given in words; binding and its absence hold for the method and conditions named. Binding seen in cells or lysates may run through a third protein. Binding calls can cover weak binding; strength is not graded here.

Take EV71 3D polymerase (enzyme): the binding result is reported as “binds”.
